# Library screening results

By UniProt entry, the sequences of proteins in these tests, tags left out.
UniProt E9BF75, entry or part of it: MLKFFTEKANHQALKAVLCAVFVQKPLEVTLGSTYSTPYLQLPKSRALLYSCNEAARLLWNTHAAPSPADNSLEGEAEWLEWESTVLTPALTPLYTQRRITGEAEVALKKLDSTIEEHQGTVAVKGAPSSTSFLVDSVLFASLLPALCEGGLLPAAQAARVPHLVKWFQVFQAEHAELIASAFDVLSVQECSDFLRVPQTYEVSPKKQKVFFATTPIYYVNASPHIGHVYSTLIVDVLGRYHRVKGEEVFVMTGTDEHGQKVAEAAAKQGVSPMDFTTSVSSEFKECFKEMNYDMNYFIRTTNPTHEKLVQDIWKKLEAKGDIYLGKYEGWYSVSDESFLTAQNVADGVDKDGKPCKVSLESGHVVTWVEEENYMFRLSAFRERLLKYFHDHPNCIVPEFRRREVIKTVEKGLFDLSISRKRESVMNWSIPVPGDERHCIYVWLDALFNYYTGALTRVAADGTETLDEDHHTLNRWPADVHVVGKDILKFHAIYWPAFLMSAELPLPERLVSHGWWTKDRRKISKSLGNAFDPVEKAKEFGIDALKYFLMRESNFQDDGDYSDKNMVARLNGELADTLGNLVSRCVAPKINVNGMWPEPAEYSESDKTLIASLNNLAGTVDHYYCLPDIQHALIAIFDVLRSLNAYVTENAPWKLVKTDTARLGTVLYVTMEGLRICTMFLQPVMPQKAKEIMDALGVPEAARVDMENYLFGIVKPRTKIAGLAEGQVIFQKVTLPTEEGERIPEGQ

The values are deposited in ChEMBL (CHEMBL3988442, “University of Dundee, Small-Polar-MMV Screening Library” (2021)).

A: 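Assay on Mycobacterium tuberculosis, filed only as a heat shock assay from Cornell; the read-out is not stated. The concentration is filed as 10 mM, unlikely as a test dose, so the dose is not known. The record gives no direction; compounds that gave an IC50 in retests scored well above the rest, so higher reads as stronger inhibition. Size under these conditions: about 69,000 compounds, about 930 of them at 50% or above in at least one test.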
B: 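Whole-cell assay for inhibitors of Mycobacterium tuberculosis growth, labelled Cornell in the record; the read-out is not stated. The concentration is filed as 10 mM, unlikely as a test dose, so the dose is not known. Higher means stronger inhibition (inferred from two other growth screens of the library). Of about 53,000 compounds tested this way, about 900 (1.7%) reached 50% or more in at least one test.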
C: 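Methionyl-tRNA synthetase (putative), Leishmania donovani (UniProt E9BF75). Primary screen of methionyl-tRNA synthetase; the read-out is not stated. The test concentration is not given. Values are per cent inhibition. Of about 68,000 compounds tested this way, about 24 (0.035%) reached 50% or more in at least one test.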

Results are percentages, as filed.
The record does not define 0% and 100%; most values in the screen are far below 50% and negative numbers occur (in some assays of this library far below -100).
Compounds were drawn at random from those tested, without regard to their results.
A dash means the value is not listed here; it may have been measured.

* Cc1ccc(-c2nc(CN3CCN(C(=O)C4CC4)CC3)cs2)o1 | A: -1.298%; B: -32.26%; C: 24.93%
* O=C(O)C(F)(F)F.O=C(c1ccc[nH]1)N1CCc2c(COCC3CC3)cncc2C1 | A: -0.4009%; B: 2.63%
* CCCn1nnc(NCc2cc(Br)cc(Br)c2OC)n1 | A: 18.97%; B: 40.71%; C: 14.71%
* CCc1nc(NCC2CCCN(C(=O)C3CC3)C2)c2cnn(C)c2n1 (stereo unspecified) | A: -2.19%; B: 38.88%; C: 12.83%
* O=C(c1cnc(-c2ccccc2)s1)N1CCC2(CC1)OCCO2 | A: -4.654%; C: 2.466%
* Cl.Cl.c1cnc(NCc2cncc3c2CCN(Cc2cccs2)C3)nc1 | A: 12.41%
* COc1ccc(-c2cnc(N)nc2C2CCCNC2)cc1 (stereo unspecified) | C: 17.92%
* COc1ccccc1OCC(=O)Nc1ncccc1OC(F)F | A: 16.43%; B: 19.8%; C: 13.27%
* CN(C)Cc1csc(-c2nccn2CCc2cccnc2)c1 | A: -0.2766%; B: -5.95%; C: 7.617%
* N#Cc1cc(Cl)ccc1N1CCN(C(=O)C2CCC2)CC1 | A: -10.24%; B: 8.605%; C: 2.638%
* Cc1cc2c(c(=O)n1CCC(=O)O)C=CC(C)(C)O2 | A: 0.1614%; B: 14.44%; C: 16.83%
* CCOCC(O)CN1CCN(C(=O)Cc2ccccc2Cl)CC1 (stereo unspecified) | A: -4.23%; C: 8.163%
* O=C(c1ccc(C2CCCN2C(=O)c2cscn2)s1)N1CCSCC1 (stereo unspecified) | A: 7.585%; B: 2.488%; C: -2.158%
* NC(=O)c1csc(N2C[C@@H](CN3CCOCC3)[C@@H](CO)C2)n1 | A: 14.25%; B: 1.96%; C: 22.86%
* Cc1nc2c(c(=O)n1C)CN(C(=O)C1CCCN(C(N)=O)C1)C2 (stereo unspecified) | A: 26.12%; B: 19.88%; C: -0.9639%
* O=C(c1c[nH]cn1)N1CCC(F)(F)C2(CCN(c3cccc(F)c3)C2)C1 (stereo unspecified) | C: 30.5%
* Cc1ccc(CN2CC[C@H]3C(=O)N(c4cccnc4)CCO[C@H]3C2)o1 | C: 8.014%
* CN(CCc1cccs1)C(=O)Nc1cccc(S(C)(=O)=O)c1 | A: -6.429%; B: 2.697%; C: 16.25%
* O=C1CC[C@H]2[C@H](CCN2Cc2ccccn2)N1CC1CCOCC1 | C: 7.744%
* Cc1cc(CNC(=O)CCCN2CCCCC2)n(C)n1 | A: -19.27%; B: -21.39%; C: 10.18%
* CN(C)c1nccc(N2CCO[C@H]3CN(Cc4nccn4C)C[C@H]32)n1 | C: 10.43%
* Cc1noc(CNC(=O)CN(C)c2nc3c(C)ccc(C)c3s2)n1 | A: -12.57%; B: 0.1293%; C: 8.393%
* Cc1noc(C)c1CN1CCOC2(CCCN(c3ncccn3)C2)C1 (stereo unspecified) | C: 10.37%
* COC(=O)c1cccn1C1CCN(Cc2cnc3ccccn23)CC1 | A: -26.92%; C: 9.29%
* O=C(CN1CC(c2ccccc2)CC1=O)N1CCN(c2nccs2)CC1 (stereo unspecified) | A: -29.83%; B: -6.023%; C: 11.38%
* CN1CC(=O)N(c2ccsc2)CC12CCN(C(=O)CC1CCCC1)C2.O=C(O)C(F)(F)F (stereo unspecified) | A: -9.588%; B: 18.61%
* O=C1CCC2(CCOC2)CN1Cc1ccc2nsnc2c1 (stereo unspecified) | A: 3.75%; B: 21.51%; C: 2.857%
* CSC1(CNC(=O)NC(C)c2ccc(F)cc2)CCOCC1 (stereo unspecified) | A: -20.83%; B: 2.504%; C: 4.969%

Repeated from the top, 2 entries:

| Compound | A | B | C |
|---|---|---|---|
| `Cc1ccc(-c2nc(CN3CCN(C(=O)C4CC4)CC3)cs2)o1` | -1.298% | -32.26% | 24.93% |
| `O=C(O)C(F)(F)F.O=C(c1ccc[nH]1)N1CCc2c(COCC3CC3)cncc2C1` | -0.4009% | 2.63% | - |